Results from patent US20130059786A1.
No constants are given. Whether binding was seen depends on the method and setting. Some entries that bind do so weakly or less than the wild type. Tags and fused reporters may be left off the sequences shown.

Biological target: rat Cthrc1 with C terminal myc/6xHis tag, recombinant, purified from CHO conditioned medium (rat) (UniProt Q8CG08)
Experiment: non-reducing SDS-PAGE and autoradiography of mouse plasma after injection of 125I-Cthrc1

binding: binds
B1: rat Cthrc1 with C terminal myc/6xHis tag, recombinant, purified from CHO conditioned medium (protein)
chain: SENPKVKQKALIRQREVVDLYNGMCLQGPAGVPGRDGSPGANGIPGTPGIPGRDGFKGEKGECLRESFEESWTPNYKQCSWSSLNYGIDLGKIAECTFTKMRSNSALRVLFSGSLRLKCRNACCQRWYFTFNGAECSGPLPIEAIIYLDQGSPELNSTINIHRTSSVEGLCEGIGAGLVDVAIWVGTCSDYPKGDASTGWNSVSRIIIEELPKEQKLISEEDLHHHHHH
modifications: radiolabeled with 125I (in the plasma clearance experiment only)
